Test [1] addresses FliP, P. savastanoi (Pseudomonas savastanoi pv. phaseolicola 1448A (DSM 21482)) (UniProt Q48GF5). As to the kind of experiment: cryo-EM structure; both purified.
The target in test [2] is FliP, V. mimicus polar flagellum (Vibrio mimicus (strain DSM 19130)). The experiment in a line: cryo-EM structure; both purified.

By UniProt entry, the sequences of proteins in these tests, tags left out. Where a name states a change or a piece, a line headed by the entry shows the natural chain unless it says otherwise.
UniProt Q48GF5: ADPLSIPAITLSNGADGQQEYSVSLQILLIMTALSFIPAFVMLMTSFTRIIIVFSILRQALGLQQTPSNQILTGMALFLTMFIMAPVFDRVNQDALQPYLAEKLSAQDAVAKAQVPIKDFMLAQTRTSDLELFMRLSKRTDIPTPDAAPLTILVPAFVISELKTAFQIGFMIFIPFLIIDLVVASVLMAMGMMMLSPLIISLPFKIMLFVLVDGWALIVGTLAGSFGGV

Results are given in words; binding and its absence hold for the method and conditions named. Binding can be weak; no strength is given. For some assays here: Sequences can lack the tags named with a protein.

B1: FliR, P. savastanoi (protein, UniProt Q48GF7 1-258)
chain: MLALTDIQISTWVASFMLPMFRIVALLMTMPVIGTTLVPRRVRLYLAFAITVVVAPALPAMPPVQALDLSGLLLIGEQIIIGAGMGLSLQMFFHIFVIAGQIISTQMGMGFASMVDPTNGVSSAVIGQFFTMLVTLLFLFMNGHLVVLEVLVESFTTMPVGGGLLVNNFWELANGLGWALSSGLRLVLPAITALLIINIAFGVMTRAAPQLNIFSIGFPLTLVLGMVILWMSMGDILNQYQPIASQALQSLRDMVRAR
As to B1, the binding result in test [1] is “binds”.

B2: FliR, V. mimicus polar flagellum (protein, UniProt A0A2J9VIH1 1-258)
chain: MAITFAELSAILGQLWWPFFRVGAVFISMPFFGDALIPIWVRSLLALAIVVITAPLIPTMPAVDLFSMTSLFLAFEQVIWGIIFGLILHMLFTVFAMLGQIVSLQMGLGMAMMNDPVNGISVAVLGRLFLIFSTLLFLALEGHLLVIDVLIQSFVIWPVGSGITSLSLQGVINAFGWMFASSLALALPAIISMLLANISFGVMNRAAPSLNIYALGFPMTMLLGLFSVLISVSGIPDRYTDLVHNTLQYLNNFILGGV
As to B2, the binding entry in test [2] is on record as “binds”.

Values taken from article PMC7064499.
